Measurements as given in the supplement of paper PMC12420376.

Tests used:
OVCAR8 = test: drug sensitivity score (DSS2) on cancer cell count; higher = more sensitive; extreme values may be limits of the assay; conditions: 72 h
Method in brief: (§1)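 Ovarian cancer cells were grown alone or in 1:1 direct co-culture with lung or skin fibroblasts. They were plated onto 384-well plates pre-spotted acoustically with 528 approved and investigational compounds at 5 concentrations, then treated for 72 h. Cells were fixed, immunostained for CK8/18 with Hoechst, and imaged at 10× (4 fields) to count cancer cells. A drug sensitivity score (DSS2) was derived in Breeze from 4-parameter logistic fits, with screen quality checked by Z'.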

KURAMOCHI = test: as above; conditions: 72 h
Method in brief: as §1

[1] = co-cultured fibroblast: BJHTERT
[2] = co-cultured fibroblast: none (monoculture)

Question: With `C[C@@H]1C[C@H](N)C[C@H](c2ccncc2NC(=O)c2ccc(F)c(-c3c(F)cccc3F)n2)C1` [PIM-447] as the molecule, how does the drug sensitivity score (OVCAR8; [1]) read?
Answer: 2.7 DSS

Question: What about the drug sensitivity score (OVCAR8; co-cultured fibroblast: WI38) of the same molecule?
Answer: 0 DSS

Question: And the drug sensitivity score (OVCAR8; [2])?
Answer: 1.7 DSS

Question: What about the drug sensitivity score (KURAMOCHI; [1]) of the same molecule?
Answer: 1.5 DSS

Question: What about the drug sensitivity score (KURAMOCHI; co-cultured fibroblast: WI38) of the same molecule?
Answer: 2.9 DSS

Question: What about the drug sensitivity score (KURAMOCHI; [2]) of the same molecule?
Answer: 1.9 DSS
